Experimental data from article PMC7057099.
Changes are numbered by the printed parent chain. Names and notes keep the numbering of the source. No constants are given. Whether binding was seen depends on the method and setting. Binding seen in cells or lysates may run through a third protein. Some entries that bind do so weakly or less than the wild type. Sequences can lack the tags named with a protein.

Amino acid sequences for entries named in this document (tags omitted).
UniProt P43694: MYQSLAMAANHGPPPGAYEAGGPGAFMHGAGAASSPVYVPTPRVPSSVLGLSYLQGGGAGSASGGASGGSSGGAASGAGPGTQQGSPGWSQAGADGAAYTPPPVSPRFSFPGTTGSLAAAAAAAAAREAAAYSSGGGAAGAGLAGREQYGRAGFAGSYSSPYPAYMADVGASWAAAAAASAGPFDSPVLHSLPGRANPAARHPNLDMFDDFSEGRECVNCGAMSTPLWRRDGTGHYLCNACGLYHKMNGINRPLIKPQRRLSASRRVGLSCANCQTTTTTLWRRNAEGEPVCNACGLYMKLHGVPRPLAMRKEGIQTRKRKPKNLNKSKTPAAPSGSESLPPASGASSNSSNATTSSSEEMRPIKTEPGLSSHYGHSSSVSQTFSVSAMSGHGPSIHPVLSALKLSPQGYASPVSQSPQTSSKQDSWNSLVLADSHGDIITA

B1: ZFPM2 (FOG2) p.M544I variant, Myc-DDK-tagged (protein, UniProt Q8WW38-1 1-1151)
chain: MSRRKQSKPRQIKRPLEDAIEDEEEECPSEETDIISKGDFPLEESFSTEFGPENLSCEEVEYFCNKGDDEGIQETAESDGDTQSEKPGQPGVETDDWDGPGELEVFQKDGERKIQSRQQLPVGTTWGPFPGKMDLNNNSLKTKAQVPMVLTAGPKWLLDVTWQGVEDNKNNCIVYSKGGQLWCTTTKAISEGEELIAFVVDFDSRLQAASQMTLTEGMYPARLLDSIQLLPQQAAMASILPTAIVNKDIFPCKSCGIWYRSERNLQAHLMYYCSGRQREAAPVSEENEDSAHQISSLCPFPQCTKSFSNARALEMHLNSHSGVKMEEFLPPGASLKCTVCSYTADSVINFHQHLFSHLTQAAFRCNHCHFGFQTQRELLQHQELHVPSGKLPRESDMEHSPSATEDSLQPATDLLTRSELPQSQKAMQTKDASSDTELDKCEKKTQLFLTNQRPEIQPTTNKQSFSYTKIKSEPSSPRLASSPVQPNIGPSFPVGPFLSQFSFPQDITMVPQASEILAKMSELVHRRLRHGSSSYPPVIYSPLIPKGATCFECNITFNNLDNYLVHKKHYCSSRWQQMAKSPEFPSVSEKMPEALSPNTGQTSINLLNPAAHSADPENPLLQTSCINSSTVLDLIGPNGKGHDKDFSTQTKKLSTSSNNDDKINGKPVDVKNPSVPLVDGESDPNKTTCEACNITFSRHETYMVHKQYYCATRHDPPLKRSASNKVPAMQRTMRTRKRRKMYEMCLPEQEQRPPLVQQRFLDVANLNNPCTSTQEPTEGLGECYHPRCDIFPGIVSKHLETSLTINKCVPVSKCDTTHSSVSCLEMDVPIDLSKKCLSQSERTTTSPKRLLDYHECTVCKISFNKVENYLAHKQNFCPVTAHQRNDLGQLDGKVFPNPESERNSPDVSYERSIIKCEKNGNLKQPSPNGNLFSSHLATLQGLKVFSEAAQLIATKEENRHLFLPQCLYPGAIKKAKGADQLSPYYGIKPSDYISGSLVIHNTDIEQSRNAENESPKGQASSNGCAALKKDSLPLLPKNRGMVIVNGGLKQDERPAANPQQENISQNPQHEDDHKSPSWISENPLAANENVSPGIPSAEEQLSSIAKGVNGSSQAPTSGKYCRLCDIQFNNLSNFITHKKFYCSSHAAEHVK
B2: ZFPM2 (FOG2) p.K590N variant, Myc-DDK-tagged (protein, UniProt Q8WW38-1 1-1151)
chain: B1 chain with I544M, K590N
B3: ZFPM2 (FOG2) p.L607del variant, Myc-DDK-tagged (protein, UniProt Q8WW38-1 1-1151)
chain: MSRRKQSKPRQIKRPLEDAIEDEEEECPSEETDIISKGDFPLEESFSTEFGPENLSCEEVEYFCNKGDDEGIQETAESDGDTQSEKPGQPGVETDDWDGPGELEVFQKDGERKIQSRQQLPVGTTWGPFPGKMDLNNNSLKTKAQVPMVLTAGPKWLLDVTWQGVEDNKNNCIVYSKGGQLWCTTTKAISEGEELIAFVVDFDSRLQAASQMTLTEGMYPARLLDSIQLLPQQAAMASILPTAIVNKDIFPCKSCGIWYRSERNLQAHLMYYCSGRQREAAPVSEENEDSAHQISSLCPFPQCTKSFSNARALEMHLNSHSGVKMEEFLPPGASLKCTVCSYTADSVINFHQHLFSHLTQAAFRCNHCHFGFQTQRELLQHQELHVPSGKLPRESDMEHSPSATEDSLQPATDLLTRSELPQSQKAMQTKDASSDTELDKCEKKTQLFLTNQRPEIQPTTNKQSFSYTKIKSEPSSPRLASSPVQPNIGPSFPVGPFLSQFSFPQDITMVPQASEILAKMSELVHRRLRHGSSSYPPVIYSPLMPKGATCFECNITFNNLDNYLVHKKHYCSSRWQQMAKSPEFPSVSEKMPEALSPNTGQTSINLNPAAHSADPENPLLQTSCINSSTVLDLIGPNGKGHDKDFSTQTKKLSTSSNNDDKINGKPVDVKNPSVPLVDGESDPNKTTCEACNITFSRHETYMVHKQYYCATRHDPPLKRSASNKVPAMQRTMRTRKRRKMYEMCLPEQEQRPPLVQQRFLDVANLNNPCTSTQEPTEGLGECYHPRCDIFPGIVSKHLETSLTINKCVPVSKCDTTHSSVSCLEMDVPIDLSKKCLSQSERTTTSPKRLLDYHECTVCKISFNKVENYLAHKQNFCPVTAHQRNDLGQLDGKVFPNPESERNSPDVSYERSIIKCEKNGNLKQPSPNGNLFSSHLATLQGLKVFSEAAQLIATKEENRHLFLPQCLYPGAIKKAKGADQLSPYYGIKPSDYISGSLVIHNTDIEQSRNAENESPKGQASSNGCAALKKDSLPLLPKNRGMVIVNGGLKQDERPAANPQQENISQNPQHEDDHKSPSWISENPLAANENVSPGIPSAEEQLSSIAKGVNGSSQAPTSGKYCRLCDIQFNNLSNFITHKKFYCSSHAAEHVK

What follows are binders tested against GATA-binding protein 4 (GATA4), wild-type, HA-tagged (human) (UniProt P43694) (assay: co-IP; HEK293-T cells co-transfected with wild-type GATA4-HA and ZFPM2-Myc-DDK (wild-type or variant); Pierce IP lysis buffer; IP with rabbit anti-HA overnight at 4°C, protein A/G plus agarose, PBS washes; Western blot of the IP with anti-ZFPM2).

binding, binds:
B1
B2
B3
